Data: PubChem BioAssay AID264 (DTP/NCI, 2004)
The list does not hold the whole screen: it is rich in T/C values a quarter to a half above the control, in often repeated tests (any T/C) and in doses without a T/C. Further doses and runs are listed elsewhere. T/C is the treated group as % of the vehicle group. Schedules are NCI's codes, taken here to give the interval after Q, in days (D) or hours (H), and the number of doses after X. Some T/C values are followed by the survivors on the day toxicity was checked, most often the fifth; where none is given, no animal had died by that day. Some doses have a count of surviving animals in place of a T/C: the source files T/C as zero there, which appears to mark a toxic dose or a test without result, not a measured value. Survivors were counted at the toxicity check, usually on the fifth day, unless a day is given; later deaths do not show. Some doses were run more than once; the values are given in rising order. Some molecules as drawn cover several salts, stereoisomers or complexes of the source; a dose is that of the sample tested.

Tested on: nude mice, LX-1 lung xenograft intrarenal, tumor weight T/C
Test: NCI In Vivo Anticancer Drug Screen. Data for tumor model Human Lung LX-1 Xenograft (intrarenal inoculation) in NU/NU Swiss (nude) mice
Details: T/C endpoint: mean tumor weight change, higher T/C = larger tumour; for T/C: evaluated on day 11
Procedure, shortened: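 Compound-treated mice carrying transplanted tumors were compared with vehicle-treated controls. Tumor size was the measured end point, and the value is the treated-group measurement divided by the control-group measurement (T/C).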

[1] = dose: 200.0 mg/kg/injection, schedule: Q01DX010 (sc), vehicle: saline
[2] = dose: 400.0 mg/kg/injection, schedule: Q01DX010 (sc), vehicle: saline
[3] = dose: 600.0 mg/kg/injection, schedule: Q04DX003 (sc), vehicle: saline with Tween-80
[4] = dose: 2.0 mg/kg/injection, schedule: Q01DX010 (sc), vehicle: saline
[5] = dose: 4.0 mg/kg/injection, schedule: Q01DX010 (sc), vehicle: saline
[6] = dose: 600.0 mg/kg/injection, schedule: Q04DX003 (sc), vehicle: saline

## c1cc2n(n1)CCN2
dose: 166.66 mg/kg/injection, schedule: Q04DX003 (ip), vehicle: saline
  T/C: 147 % of control
[1]
  T/C: 144 % of control
[2]
  survivor count: 0 of 3 on day 11 and 2 of 6 on day 11
dose: 666.6 mg/kg/injection, schedule: Q04DX003 (ip), vehicle: saline
  survivor count: 0 of 3 on day 11
dose: 1333.3 mg/kg/injection, schedule: Q04DX003 (ip), vehicle: saline
  survivor count: 0 of 3 on day 11

## CCOC(=O)C(CC(C)C)NC(=O)C(N)Cc1ccc(N(CCCl)CCCl)cc1 (stereo not given)
dose: 60.0 mg/kg/injection, schedule: Q04DX003 (sc), vehicle: water
  survivor count: 3 of 6 on day 11
dose: 120.0 mg/kg/injection, schedule: Q04DX003 (sc), vehicle: water
  survivor count: 0 of 6 on day 11

## NC(=O)c1ncn(C2OC(CO)C(O)C2O)c1O (stereo not given)
dose: 300.0 mg/kg/injection, schedule: Q04DX003 (sc), vehicle: Klucel (hydroxypropylcellulose) (HPC)
  T/C: 134 % of control
dose: 600.0 mg/kg/injection, schedule: Q04DX003 (sc), vehicle: Klucel (hydroxypropylcellulose) (HPC)
  T/C: 126 % of control
dose: 1200.0 mg/kg/injection, schedule: Q04DX003 (sc), vehicle: Klucel (hydroxypropylcellulose) (HPC)
  T/C: 126 % of control

## S=c1[nH]cc2cnccn12
[3]
  T/C: 145 % of control

## Cc1c(N)nc(C(CC(N)=O)NCC(N)C(N)=O)nc1C(=O)NC(C(=O)NC(C)C(O)C(C)C(=O)NC(C(=O)NCCc1nc(-c2nc(C(=O)NCCCNC(C)c3ccccc3)cs2)cs1)C(C)O)C(OC1OC(CO)C(O)C(O)C1OC1OC(CO)C(O)C(OC(N)=O)C1O)c1cnc[nH]1 (stereo not given)
dose: 64.0 mg/kg/injection, schedule: Q01DX010 (sc), vehicle: saline
  survivor count: 0 of 3 on day 11

## CC1(C)OCC2OC=CC(=O)C2O1 (stereo not given)
dose: 150.0 mg/kg/injection, schedule: Q04DX003 (sc), vehicle: saline with Tween-80
  T/C: 133 % of control
[3]
  T/C: 129 % of control
dose: 1200.0 mg/kg/injection, schedule: Q04DX003 (sc), vehicle: saline with Tween-80
  survivor count: 0 of 6 on day 11

## COc1cc2c(c(OC)c1OC)-c1ccc(OC)c(=O)cc1[C@@H](NC(C)=O)CC2
dose: 1.0 mg/kg/injection, schedule: Q01DX010 (sc), vehicle: saline
  survivor count: 1 of 3 on day 11
[4]
  survivor count: 0 of 3 on day 11

## COC(=O)C[C@](O)(CCCC(C)(C)O)C(=O)O[C@@H]1C(OC)=C[C@]23CCCN2CCc2cc4c(cc2[C@H]13)OCO4
[4]
  survivor count: 1 of 3 on day 11
[5]
  survivor count: 0 of 3 on day 11

## COc1cc(NCc2ccc3nc(N)nc(N)c3c2C)cc(OC)c1OC
dose: 10.0 mg/kg/injection, schedule: Q01DX010 (sc), vehicle: sodium bicarbonate
  survivor count: 0 of 2 on day 11
dose: 300.0 mg/kg/injection, schedule: Q04DX003 (sc), vehicle: water
  survivor count: 2 of 6 on day 11
dose: 600.0 mg/kg/injection, schedule: Q04DX003 (sc), vehicle: water
  survivor count: 0 of 6 on day 11

## CC(C)[C@](O)(C(=O)OCC1=CC[N+]2([O-])CC[C@@H](O)[C@@H]12)[C@H](C)O (stereo not given in full)
dose: 800.0 mg/kg/injection, schedule: Q01DX010 (sc), vehicle: water
  survivor count: 1 of 3 on day 11

## CCCCCCCC(=O)OCC(=O)[C@]1(O)Cc2c(O)c3c(c(O)c2[C@@H](OC2CC(N)C(O)C(C)O2)C1)C(=O)c1c(OC)cccc1C3=O (stereo not given in full)
dose: 8.0 mg/kg/injection, schedule: Q01DX010 (sc), vehicle: saline
  survivor count: 1 of 3 on day 11
dose: 16.0 mg/kg/injection, schedule: Q01DX010 (sc), vehicle: saline
  survivor count: 0 of 3 on day 11

## CC(=O)OCC1OC(n2cc(CBr)nn2)C(OC(C)=O)C(OC(C)=O)C1OC(C)=O (stereo not given)
dose: 200.0 mg/kg/injection, schedule: Q01DX010 (sc), vehicle: saline with Tween-80
  T/C: 130 % of control

## COc1cccc2c1C(=O)c1c(O)c3c(c(O)c1C2=O)C[C@@](O)(C(C)=O)C[C@@H]3OC1CC(N(C)C)C(O)C(C)O1 (stereo not given in full)
dose: 8.0 mg/kg/injection, schedule: Q01DX010 (sc), vehicle: water
  survivor count: 0 of 3 on day 11
dose: 16.0 mg/kg/injection, schedule: Q01DX010 (sc), vehicle: water
  survivor count: 0 of 3 on day 11
dose: 24.0 mg/kg/injection, schedule: Q04DX003 (sc), vehicle: water
  survivor count: 1 of 3 on day 11
dose: 48.0 mg/kg/injection, schedule: Q04DX003 (sc), vehicle: water
  survivor count: 0 of 3 on day 11

## NC(=O)c1cn(C2OC(CO)C(O)C2O)c2ncnc(N)c12 (stereo not given)
[5]
  survivor count: 0 of 3 on day 11

## CC[N+](CC)(CC)CC
dose: 24.0 mg/kg/injection, schedule: Q01DX010 (sc), vehicle: saline with Tween-80
  survivor count: 0 of 3 on day 11

## OCC12COCN1COC2
dose: 300.0 mg/kg/injection, schedule: Q04DX003 (sc), vehicle: saline
  T/C: 147 % of control
[6]
  T/C: 142 % of control [5 of 6 alive on day 11]

## N=C(N)SCc1cccc2c(=O)cc(-c3ccccc3)oc12
dose: 2400.0 mg/kg/injection, schedule: Q04DX003 (sc), vehicle: suspension in saline
  survivor count: 3 of 6 on day 11

## O=C1C=C(C2OC(CO)C(O)C2O)C(=O)N1 (stereo not given)
dose: 50.0 mg/kg/injection, schedule: Q01DX010 (sc), vehicle: saline
  survivor count: 0 of 3 on day 11

## NC(=S)N/N=C/c1ccc(OC(=O)COc2ccccc2)cn1
dose: 2400.0 mg/kg/injection, schedule: Q04DX003 (sc), vehicle: saline with Tween-80
  survivor count: 2 of 6 on day 11

## COc1cccc2c1C(=O)c1c(O)c3c(c(O)c1C2=O)CC(O)(/C(C)=N/NC(=O)CCC(=O)N/N=C(\C)C1(O)Cc2c(O)c4c(c(O)c2C(OC2CC(N)C(O)C(C)O2)C1)C(=O)c1c(OC)cccc1C4=O)CC3OC1CC(N)C(O)C(C)O1 (stereo not given)
dose: 25.0 mg/kg/injection, schedule: Q01DX010 (sc), vehicle: water
  survivor count: 0 of 3 on day 11
dose: 50.0 mg/kg/injection, schedule: Q01DX010 (sc), vehicle: water
  survivor count: 0 of 3 on day 11

## C[C@H](N)C(=O)N[C@@H]1[C@H]2C(=C(O)C[C@@H](O)[C@@H]2O)C(=O)O[C@]1(C)C(Cl)Cl
dose: 12.0 mg/kg/injection, schedule: Q04DX003 (sc), vehicle: Klucel (hydroxypropylcellulose) (HPC)
  survivor count: 0 of 6 on day 11

## O=C1CC2(C(=O)N1CN1CCCCC1)c1ccccc1-c1ccccc12
dose: 800.0 mg/kg/injection, schedule: Q04DX003 (sc), vehicle: Klucel (hydroxypropylcellulose) (HPC)
  survivor count: 3 of 6 on day 11
dose: 1600.0 mg/kg/injection, schedule: Q04DX003 (sc), vehicle: Klucel (hydroxypropylcellulose) (HPC)
  survivor count: 1 of 6 on day 11

## OCC1OC(n2cnc3c(=S)nc[nH]c32)C(O)C1O (stereo not given)
[1]
  survivor count: 0 of 3 on day 11
[2]
  survivor count: 0 of 3 on day 11
dose: 800.0 mg/kg/injection, schedule: Q01DX010 (sc), vehicle: saline
  survivor count: 0 of 3 on day 11

## O=NN(CCCl)C(=O)NC1CCCCC1
dose: 12.5 mg/kg/injection, schedule: Q04DX003 (sc), vehicle: Klucel (hydroxypropylcellulose) (HPC)
  T/C: 128 % of control
dose: 32.0 mg/kg/injection, schedule: Q01DX010 (ip), vehicle: saline with Tween-80
  survivor count: 0 of 3 on day 11
dose: 64.0 mg/kg/injection, schedule: Q01DX010 (sc), vehicle: saline with Tween-80
  survivor count: 1 of 3 on day 11
dose: 106.65 mg/kg/injection, schedule: Q04DX003 (ip), vehicle: saline with Tween-80
  survivor count: 0 of 3 on day 11

## CONc1ccn(C2OC(CO)C(O)C2O)c(=O)n1 (stereo not given)
[6]
  survivor count: 3 of 5 on day 11
dose: 1200.0 mg/kg/injection, schedule: Q04DX003 (sc), vehicle: saline
  survivor count: 0 of 6 on day 11
dose: 2400.0 mg/kg/injection, schedule: Q04DX003 (sc), vehicle: saline
  survivor count: 2 of 6 on day 11

## CSc1ccc2c(c1)C(N1CCN(C)CC1)Cc1ccccc1S2 (stereo not given)
dose: 12.5 mg/kg/injection, schedule: Q04DX003 (sc), vehicle: saline with Tween-80
  T/C: 140 % of control
dose: 200.0 mg/kg/injection, schedule: Q04DX003 (sc), vehicle: saline with Tween-80
  survivor count: 1 of 6 on day 11

## c1cc[c]([Sn][c]2ccccc2)cc1
dose: 5.0 mg/kg/injection, schedule: Q01DX010 (sc), vehicle: saline
  T/C: 131 % of control
